Patent US20220193134A1, “CO-USE OF LENALIDOMIDE WITH CAR-T CELLS” (CRISPR THERAPEUTICS AG, priority 2020, published 2022)
Some of these results come from one statement about several compounds together.

System: MM.1S subcutaneous tumor
Assay: MM.1S subcutaneous tumor model in mice
Settings: single treatment arms

With Nc1cccc2c1CN(C1CCC(=O)NC1=O)C2=O (stereo not shown) [Lenalidomide] the “day by which all mice were sacrificed due to reaching max tumor volume” value was no more than 32 days.
